Assay [1] deals with CDPK1-HA (HA-tagged wild-type L. infantum protein kinase CDPK1, LinJ.33.1810) (L. infantum) (UniProt A4I967). Kind of assay: affinity purification with mass spectrometry; anti-HA immunoprecipitate of CDPK1-HA after a non-radioactive immunocomplex kinase reaction, run on 12% SDS-PAGE; bands parallel to the radioactive signals cut out and analysed by LC-MS/MS.
For assay [2] the target is unchanged. Description: affinity purification with mass spectrometry; lysate of mid-log L. infantum expressing CDPK1-HA on anti-HA magnetic beads (4 °C, 4 h), on-bead trypsin digest, LC-MS/MS; SAINT (AvP > 0.8) against HA-PTR1 and HA-DHFR-TS control immunoprecipitates; three biological replicates.

The chains behind the UniProt entries cited, without tags or fusion partners. Where a name states a change or a piece, a line headed by the entry shows the natural chain unless it says otherwise.
UniProt A4I9I9: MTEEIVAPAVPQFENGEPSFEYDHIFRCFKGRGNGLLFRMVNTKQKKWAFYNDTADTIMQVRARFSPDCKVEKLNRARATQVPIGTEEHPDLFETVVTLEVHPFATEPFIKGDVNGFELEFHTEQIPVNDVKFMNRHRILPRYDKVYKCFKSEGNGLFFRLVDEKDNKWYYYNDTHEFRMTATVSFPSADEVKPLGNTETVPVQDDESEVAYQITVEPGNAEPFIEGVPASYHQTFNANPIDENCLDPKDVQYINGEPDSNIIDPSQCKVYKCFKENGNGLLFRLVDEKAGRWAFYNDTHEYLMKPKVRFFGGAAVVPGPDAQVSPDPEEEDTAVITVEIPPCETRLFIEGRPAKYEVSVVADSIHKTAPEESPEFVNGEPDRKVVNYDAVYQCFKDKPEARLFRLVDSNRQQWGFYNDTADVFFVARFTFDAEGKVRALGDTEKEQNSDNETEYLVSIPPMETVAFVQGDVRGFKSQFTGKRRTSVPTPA

These are yes or no findings as the source states them, for the method shown. In cells and extracts the contact can be indirect. These calls come from enrichment with a bait or labelling near it, and not all partners need be listed.

“ARM56 (LinJ.34.0210), endogenous (from UniProt A4I9I9)”: the binding result in assay [1] and in assay [2] was “binds” throughout.
